Measured values published in US20250122548A1.
Results are given in words; binding and its absence hold for the method and conditions named. Some binding calls cover weakened binding; strength is not graded here.

Amino acid sequences for entries named in this document (tags omitted). A change or cut given only in a name is not applied to a line headed by its entry. Residues count along the entry.
UniProt P04756, residues 21-231: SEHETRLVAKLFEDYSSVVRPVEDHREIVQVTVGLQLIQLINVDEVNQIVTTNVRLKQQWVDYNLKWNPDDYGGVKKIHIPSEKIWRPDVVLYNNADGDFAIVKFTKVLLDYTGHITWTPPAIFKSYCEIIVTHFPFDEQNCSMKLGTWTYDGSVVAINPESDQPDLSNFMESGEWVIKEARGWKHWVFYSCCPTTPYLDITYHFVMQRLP
UniProt P01391: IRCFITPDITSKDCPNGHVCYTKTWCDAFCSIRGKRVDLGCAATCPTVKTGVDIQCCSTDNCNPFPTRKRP
UniProt Q53B58: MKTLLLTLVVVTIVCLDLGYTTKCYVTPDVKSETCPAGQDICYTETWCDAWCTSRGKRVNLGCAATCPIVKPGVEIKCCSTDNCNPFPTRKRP

Key:
[1] = molecular target: recombinant extracellular domain of the α1 subunit of muscle type nicotinic acetylcholine receptor (α1ECD) (UniProt P04756); experiment: native gel shift assay (legend of FIG. 7C)
[2] = molecular target: recombinant extracellular domain of the α1 subunit of muscle type nicotinic acetylcholine receptor (α1ECD) (UniProt P04756); experiment: native gel shift assay, Tris-Glycine pH 8.3

Substance	binding [1]	binding [2]
α-Cobratoxin (αCtx) (Sigma-Aldrich, C6903), native αCTX isolated from Naja Kaouthia (from UniProt P01391 1-71) (ligand)	binds	binds
rec-Hannalgesin (from UniProt Q53B58 22-93) (ligand)	binds	binds
